No constants are given. Whether binding was seen depends on the method and setting. Binding seen in cells or lysates may run through a third protein. Some binding calls cover weakened binding; strength is not graded here. Where a sequence is shown, tags or fusion partners need not be part of it.
How the values were obtained:
KCNE4-CFP = molecular target: T1, KCNE4-CFP (UniProt Q9WTW3); test: co-IP; HEK-293 cells cotransfected; lysate in 150 mM NaCl, 50 mM HEPES, 1% Triton X-100, pH 7.4; KCNE-CFP precipitated with anti-GFP antibody cross-linked to protein A-Sepharose, 2-3 h at room temperature; blotted against Kv1.3 (anti-Kv1.3) and KCNE (anti-GFP)
T1 sequence: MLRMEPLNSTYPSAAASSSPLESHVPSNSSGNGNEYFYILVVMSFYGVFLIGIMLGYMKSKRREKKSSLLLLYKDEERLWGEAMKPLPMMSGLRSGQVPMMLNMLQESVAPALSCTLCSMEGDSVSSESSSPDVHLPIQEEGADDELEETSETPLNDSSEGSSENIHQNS

The chains behind the UniProt entries cited, without tags or fusion partners.
UniProt P15384: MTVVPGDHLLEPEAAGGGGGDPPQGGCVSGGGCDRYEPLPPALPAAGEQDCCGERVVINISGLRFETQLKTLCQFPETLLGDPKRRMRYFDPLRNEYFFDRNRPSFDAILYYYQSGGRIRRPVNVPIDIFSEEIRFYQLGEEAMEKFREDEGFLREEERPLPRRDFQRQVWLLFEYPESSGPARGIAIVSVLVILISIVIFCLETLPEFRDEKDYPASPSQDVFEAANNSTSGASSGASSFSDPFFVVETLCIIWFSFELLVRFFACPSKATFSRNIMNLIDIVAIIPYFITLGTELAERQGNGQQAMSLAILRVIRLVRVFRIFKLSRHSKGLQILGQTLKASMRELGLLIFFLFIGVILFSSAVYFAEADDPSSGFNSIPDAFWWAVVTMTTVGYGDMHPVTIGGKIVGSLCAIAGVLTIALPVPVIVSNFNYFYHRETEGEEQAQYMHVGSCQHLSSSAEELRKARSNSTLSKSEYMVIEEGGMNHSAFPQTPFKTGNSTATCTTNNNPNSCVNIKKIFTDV

[1] = molecular target: T2, hKCNE2-HA introduced into pECFP-N1 (human) (UniProt Q9Y6J6); test: as above
T2 sequence: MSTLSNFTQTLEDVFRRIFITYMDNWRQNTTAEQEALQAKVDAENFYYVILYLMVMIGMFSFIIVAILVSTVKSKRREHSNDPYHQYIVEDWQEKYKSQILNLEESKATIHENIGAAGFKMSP

- binding (KCNE4-CFP): binds
- binding [1]: no binding
Substance: rKv1.3, externally tagged with HA between S3 and S4 (from UniProt P15384 1-525)

From PMC7290415, “Functional Consequences of the Variable Stoichiometry of the Kv1.3-KCNE4 Complex” (Cells, 2020)
